From patent US20190037848A1, “Novel isothiazolamides, processes for their preparation and their use as herbicides and/or plant growth regulators” (BAYER CROPSCIENCE AKTIENGESELLSCHAFT, priority 2014, published 2019)
Some entries share one result that the patent states for a list of compounds. Some ranges recur; such a range may be that of the whole group of compounds.

Key:
[1] = system: harmful plants ALOMY, AVEFA, ECHCG, LOLMU, SETVI, ABUTH, AMARE, MATIN, PHBPU, POLCO, STEME, VIOTR, VERPE; assay: Herbicidal post-emergence action (greenhouse pot test); format: in vivo; details: post-emergence method, against several harmful plants; for very good activity (herbicidal): 80 g of active substance per hectare; for excellent activity (herbicidal): 320 g of active substance per hectare
[2] = system: harmful plants ALOMY, AVEFA, ECHCG, LOLMU, SETVI, ABUTH, AMARE, MATIN, PHBPU, POLCO, STEME, VIOTR, VERPE; assay: Herbicidal pre-emergence action (greenhouse pot test); format: in vivo; details: pre-emergence method, against several harmful plants; for very good activity (herbicidal): 80 g of active substance per hectare; for excellent activity (herbicidal): 320 g of active substance per hectare

SMILES | very good activity (herbicidal) [1] | excellent activity (herbicidal) [1] | very good activity (herbicidal) [2] | excellent activity (herbicidal) [2]
Nc1nsc(C(=O)NCC2CCCOC2)c1Cl (centres unmarked) [Compound I-9] | 80-100% | 90-100% | 80-100% | 90-100%
Nc1nsc(C(=O)NCc2ccc(Cl)cc2)c1Cl [Compound I-17] | – | – | 80-100% | 90-100%
Nc1nsc(C(=O)NCc2ccc(C(F)F)cc2)c1Cl [Compound I-20] | 80-100% | 90-100% | 80-100% | 90-100%
Nc1nsc(C(=O)NCc2cccc(F)c2F)c1Cl [Compound I-21] | – | – | 80-100% | 90-100%
Nc1nsc(C(=O)NCc2cc(F)ccc2F)c1Cl [Compound I-23] | 80-100% | 90-100% | 80-100% | 90-100%
Nc1nsc(C(=O)NCc2ccc(F)c(F)c2)c1Cl [Compound I-25] | 80-100% | 90-100% | 80-100% | 90-100%
Nc1nsc(C(=O)NCc2cc(F)cc(F)c2)c1Cl [Compound I-26] | 80-100% | 90-100% | – | –
Nc1nsc(C(=O)NCc2ccc(Cl)cc2F)c1Cl [Compound I-27] | – | – | 80-100% | 90-100%
Nc1nsc(C(=O)NCc2c(F)cc(F)cc2F)c1Cl [Compound I-32] | 80-100% | 90-100% | 80-100% | 90-100%
Nc1nsc(C(=O)NCc2cc(F)cc(F)c2F)c1Cl [Compound I-33] | 80-100% | 90-100% | 80-100% | 90-100%
Nc1nsc(C(=O)NCc2c(F)ccc(F)c2F)c1Cl [Compound I-34] | – | – | 80-100% | 90-100%
Nc1nsc(C(=O)NCc2cc(F)c(F)c(F)c2)c1Cl [Compound I-35, 3-amino-4-chloro-N-(3,4,5-trifluorobenzyl)isothiazole-5-carboxamide] | 80-100% | 90-100% | 80-100% | 90-100%
Nc1nsc(C(=O)NCc2ccc(F)c(F)c2F)c1Cl [Compound I-36] | 80-100% | 90-100% | 80-100% | 90-100%
Nc1nsc(C(=O)NCc2ccc(Cl)nc2)c1Cl [Compound I-38] | 80-100% | 90-100% | 80-100% | 90-100%
Nc1nsc(C(=O)NCC2CCCC2)c1I [Compound I-44] | – | – | 80-100% | 90-100%
Cc1c(N)nsc1C(=O)NCC1CCCCC1 [Compound I-86] | 80-100% | 90-100% | 80-100% | 90-100%
Cc1c(N)nsc1C(=O)NCc1ccc(F)cc1F [Compound I-104] | 80-100% | 90-100% | – | –
Cc1c(N)nsc1C(=O)NCc1ccc(Cl)cc1F [Compound I-109] | 80-100% | 90-100% | 80-100% | 90-100%
C#Cc1c(N)nsc1C(=O)NCC1CCCCC1 [Compound I-209, 3-amino-N-(cyclohexylmethyl)-4-ethynylisothiazole-5-carboxamide] | 80-100% | 90-100% | 80-100% | 90-100%
Nc1nsc(C(=O)NCc2ccc(Cl)cc2)c1Sc1ccccc1 [Compound I-427] | – | – | 80-100% | 90-100%
Nc1nsc(C(=O)NCc2ccccc2F)c1F [Compound I-504] | – | – | 80-100% | 90-100%
Nc1nsc(C(=O)NCc2cc(F)ccc2F)c1F [Compound I-515] | 80-100% | 90-100% | – | –
Nc1nsc(C(=O)NCc2ccc(F)c(F)c2)c1F [Compound I-517] | 80-100% | 90-100% | – | –
Nc1nsc(C(=O)NCC2CCCCC2Cl)c1F (centres unmarked) [Compound I-537] | – | – | 80-100% | 90-100%
Nc1nsc(C(=O)NCc2cc(F)c(F)c(F)c2F)c1Cl [Compound I-541] | 80-100% | 90-100% | – | –
Nc1nsc(C(=O)N(Cc2ccc(F)cc2F)C(=O)C2(Cl)CC2)c1Cl [Compound V-11, 3-amino-4-chloro-N-[(1-chlorocyclopropyl)carbonyl]-N-(2,4-difluorobenzyl)isothiazole-5-carboxamide] | 80-100% | 90-100% | – | –

SMILES | very good activity (herbicidal) [1] | excellent activity (herbicidal) [1] | very good activity (herbicidal) [2] | excellent activity (herbicidal) [2]
CCCC(=O)Nc1nsc(C(=O)NCc2ccc(F)cc2F)c1Cl [II-35] | 80-100% | 90-100% | – | –
CC(C)(C)C(=O)Nc1nsc(C(=O)NCC2CCCCC2)c1Cl [II-36] | – | – | 80-100% | 90-100%
O=C(CBr)Nc1nsc(C(=O)NCC2CCCCC2)c1Cl [II-64] | – | – | 80-100% | 90-100%
COCC(=O)Nc1nsc(C(=O)NCc2ccc(F)cc2F)c1Cl [II-77] | 80-100% | 90-100% | – | –
CC(Br)C(=O)Nc1nsc(C(=O)NCC2CCCCC2)c1Cl (centres unmarked) [II-134] | – | – | 80-100% | 90-100%
O=C(NCC1CCCCC1)c1snc(NC(=O)C(Cl)Cl)c1Cl [II-141] | – | – | 80-100% | 90-100%
O=C(Nc1nsc(C(=O)NCC2CCCCC2)c1Cl)c1ccc(F)cc1 [II-155] | – | – | 80-100% | 90-100%
O=C(NCC1CCCCC1)c1snc(N(C(=O)CBr)C(=O)CBr)c1Cl [II-204] | – | – | 80-100% | 90-100%
O=C(CBr)Nc1nsc(C(=O)NCC2CCCCC2)c1F [II-250] | – | – | 80-100% | 90-100%
O=C(NCC1CCCCC1)c1snc(NC(=O)C(Cl)(Cl)Cl)c1F [II-262] | 80-100% | 90-100% | – | –
CC(=O)N(C(C)=O)c1nsc(C(=O)NCc2ccc(F)c(F)c2F)c1F [II-292] | 80-100% | 90-100% | – | –
O=C(CC(F)(F)F)Nc1nsc(C(=O)NCc2ccc(F)c(F)c2F)c1F [II-293] | 80-100% | 90-100% | – | –
O=C(CC(F)(F)F)Nc1nsc(C(=O)NCc2ccc(F)cc2)c1F [II-313] | 80-100% | 90-100% | – | –
CC(=O)Nc1nsc(C(=O)NCc2ccc(F)cc2)c1F [II-315] | 80-100% | 90-100% | – | –
O=C(NCc1ccc(F)cc1)c1snc(NC(=O)C(F)(F)C(F)(F)F)c1F [II-316] | 80-100% | 90-100% | – | –
O=C(NCc1ccc(F)cc1)c1snc(NC(=O)C(F)(F)C(F)F)c1F [II-317] | 80-100% | 90-100% | – | –
O=C(NCc1ccc(Cl)cc1)c1snc(NC(=O)C(F)F)c1F [II-320] | 80-100% | 90-100% | – | –
CC(=O)Nc1nsc(C(=O)NCc2ccc(Cl)cc2)c1F [II-321] | 80-100% | 90-100% | – | –
O=C(NCC1CCCCC1)c1snc(N(C(=O)C(F)(F)C(F)(F)Cl)C(=O)C(F)(F)C(F)(F)Cl)c1Cl [II-326] | 80-100% | 90-100% | – | –
O=C(NCC1CCCCC1)c1snc(NC(=O)C(Cl)Cl)c1Cl [II-337] | 80-100% | 90-100% | – | –
Cc1cc(C(F)(F)F)nn1CC(=O)Nc1nsc(C(=O)NCC2CCCCC2)c1Cl [II-353] | – | – | 80-100% | 90-100%
CC(Cl)C(=O)Nc1nsc(C(=O)NCC2CCCCC2)c1Cl (centres unmarked) [II-354] | – | – | 80-100% | 90-100%
CCCCC(=O)Nc1nsc(C(=O)NCc2ccc(F)cc2)c1Cl [II-357] | 80-100% | 90-100% | – | –
CCCCC(=O)N(C(=O)CCCC)c1nsc(C(=O)NCc2ccc(F)cc2)c1Cl [II-358] | 80-100% | 90-100% | – | –
CCC(=O)N(C(=O)CC)c1nsc(C(=O)NCc2ccc(F)cc2)c1Cl [II-360] | 80-100% | 90-100% | – | –
CCC(=O)Nc1nsc(C(=O)NCc2ccc(F)cc2)c1Cl [II-361] | 80-100% | 90-100% | – | –
